Assay results reported in patent publication US20050153991A1 (Cyclacel Limited, priority 2003, published 2005).

Tested on: PKC

CC[C@H](CO)Nc1nc(NCc2ccccc2)c2ncn(C(C)C)c2n1 (racemic) [roscovitine, 2-[(1-ethyl-2-hydroxyethyl)amino]-6-benzylamine-9-isopropylpurine]
IC50: > 50 µM
